# Assay results: PubChem BioAssay AID1347075 (National Center for Advancing Translational Sciences (NCATS), 2019)
# Out of some 400,000 compounds screened, about 5,500 (1.4%) were called active. Inconclusive means that the source gave no clear call. Such entries were picked first, then a sample of the others. The call rests on the fitted dose curve; in most records, active means well fitted cell-killing curve with a large enough effect; inconclusive means small, poorly fitted or top-dose-only effect, or effect the other way; inactive means flat fitted curve, though single readings scatter. Where the call is inconclusive, the potency comes from a doubtful curve fit.
# Test: qHTS assay for MDR1-selective chemotherapeutics: Primary screen using the parental adenocarcinoma cell KB-3-1; further: nearly all actives have a fitted effect of over 60% in size
# Conditions: KB-3-1 viability, CellTiter-Glo ATP luminescence, 72 h; activity change, negative = cytotoxic: at 46.1 µM (top of the series)
# Outline: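 Cells are dispensed, compounds pinned in, plates held at 37 °C for 72 h, then CellTiter-Glo is added and luminescence read after 10 minutes. Cell line: parental KB-3-1 in phenol-red-free DMEM, 10% FBS.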
# On the % scale 0 is the no-effect control and ±100 the full control effect; potency means the concentration at half of the fitted maximal effect.
Structure (SMILES),Potency,"activity change, negative = cytotoxic"
CCOC(=O)c1ccc(NS(=O)(=O)c2c(C)nc3sccn3c2=O)cc1,"inconclusive: 11.6 µM [cytotoxic, partial curve]",–
COc1ccc(N(CC(=O)Nc2ccc(Cc3ccncc3)cc2)S(=O)(=O)c2ccccc2)cc1,"inconclusive: 18.4 µM [cytotoxic, single point]",–
COc1ccc([N+](=O)[O-])c(C=CC(=O)c2ccccn2)c1,"inconclusive: 20.6 µM [cytotoxic, single point]",–
NNC(=O)c1cccn(Cc2cccc(C(F)(F)F)c2)c1=O,"inconclusive: 23.1 µM [cytotoxic, partial curve, poor fit]",–
CC(=O)CSc1cc(-c2ccccc2)nc2ncnn12,"inconclusive: 2.31 µM [rising, full curve, poor fit]",–
CCC(=O)N1N=C(c2ccc(Cl)cc2)CC1c1ccco1 (stereo unspecified),"inconclusive: 0.206 µM [cytotoxic, full curve]",–
CCOC(=O)N1CCc2c(sc3c2c(=O)n(-c2ccc(CC)cc2)c(=O)n3CC(=O)NCC2CCCO2)C1 (stereo unspecified),"inconclusive: 0.651 µM [cytotoxic, full curve, poor fit]",–
CCOc1cc(-c2c(C)c(CC)nc(N)c2C#N)ccc1O,"inconclusive: 32.6 µM [cytotoxic, single point]",–
CCOc1ccc(NC(=S)c2ccncc2)cc1,active: 23.1 µM,–
O=C(/C=C/c1ccco1)N1CCc2ccccc21,"inconclusive: 18.4 µM [cytotoxic, single point]",–
O=C(CSc1ncnc2sc3c(c12)CCCC3)N1CCC(c2noc3ccc(F)cc23)CC1,"inconclusive: 20.6 µM [cytotoxic, single point]",–
C=CCCCCCCCCc1nc(SCC(C)=O)n[nH]1,"inconclusive: 25.9 µM [cytotoxic, partial curve, poor fit]",–
COc1ccc2c(c1)c1c(c(=O)n(-c3ccc(C)cc3)c(=O)n1CC(=O)c1ccc(Cl)cc1)n2C,–,inactive: -14.2%
Cc1ccc(N2CCN(/N=C/c3cccnc3)CC2)cc1,–,inconclusive: -51.9%
CCCCc1ccc(NC2=NCC(=O)N2CCc2ccccc2)cc1,"inconclusive: 23.1 µM [cytotoxic, single point]",–
CCN(Cc1ccccc1)c1ccc(/C=N/NS(=O)(=O)c2cccc([N+](=O)[O-])c2)cc1,–,inactive: -3.05%
CN(C)c1ccc(C2SCCN2C(=O)c2ccc([N+](=O)[O-])cc2)cc1 (stereo unspecified),"inconclusive: 25.9 µM [cytotoxic, single point]",–
CCCCCc1c(-c2ccc(Br)cc2)ncn1CCc1ccccc1OC,"inconclusive: 20.6 µM [cytotoxic, single point]",–
CC(C)C[C@@H](CN1CCC[C@@H]1CN1C(=O)C(=O)NC[C@@H]1Cc1ccccc1)N1C[C@H](Cc2ccccc2)N(CC2CCCCCC2)C(=O)C1=O,"inconclusive: 20.6 µM [cytotoxic, single point]",–
COc1cccc(CNS(=O)(=O)c2ccc3[nH]c4c(c3c2)CCCCC4)c1,active: 20.6 µM,–
CCOc1ccc(N(CC(=O)NCCSc2ccccn2)S(=O)(=O)c2ccc(Cl)cc2)cc1,–,inactive: -5.12%
CN(Cc1ccc(Cl)cc1)C(c1cc2ccccc2o1)c1nnnn1C(C)(C)C (stereo unspecified),"inconclusive: 23.1 µM [cytotoxic, single point]",–

# Part of the list above, set out differently:
Structure (SMILES)	Potency	activity change, negative = cytotoxic
O=C(CSc1ncnc2sc3c(c12)CCCC3)N1CCC(c2noc3ccc(F)cc23)CC1	inconclusive: 20.6 µM [cytotoxic, single point]	–
C=CCCCCCCCCc1nc(SCC(C)=O)n[nH]1	inconclusive: 25.9 µM [cytotoxic, partial curve, poor fit]	–

# Carrying on:

Structure (SMILES),Potency,"activity change, negative = cytotoxic"
O=C(CCCCn1c(=O)[nH]c2ccsc2c1=O)N1CCN(c2cccc(C(F)(F)F)c2)CC1,–,inactive: 0.113%
CC(=O)N1CCc2c(sc3c2c(=O)n(-c2cccc(Cl)c2C)c(=O)n3Cc2ccccc2C)C1,"inconclusive: 29.1 µM [cytotoxic, single point]",–
C(=N\Nc1nc2ccccc2s1)/c1ccccn1,"inconclusive: 6.51 µM [cytotoxic, full curve]",–
CCN(CC)CCOC(=O)C1c2ccccc2Oc2ccccc21,"inconclusive: 23.1 µM [rising, partial curve, poor fit]",–
Cc1ccc(-c2csc3ncnc(Oc4cccc5ccc(C)nc45)c23)cc1,–,inactive: -2.67%
CCn1c(CNC(=O)c2ccccc2Cl)cc2ccccc21,–,inactive: 9.83%
COc1cccc(NC(=S)NC(=O)c2cccnc2)c1,–,inactive: 17.3%
COc1ccc(NS(=O)(=O)c2ccc(-c3cnc(C4CC4)o3)cc2)cc1OC,active: 2.06 µM,–
COc1ccc(S(=O)(=O)NCC(c2cccnc2)N2CCN(c3ccc(F)cc3)CC2)cc1C (stereo unspecified),"inconclusive: 20.6 µM [cytotoxic, single point]",–
COc1ccc(CNC(=O)C2CCCN(S(=O)(=O)N(C)c3ccc(F)cc3)C2)cc1OC (stereo unspecified),"inconclusive: 23.1 µM [cytotoxic, partial curve, poor fit]",–
CCCc1cc(=O)oc2c3c(c4c(c12)OC(C)(C)C=C4)OC(C)C(C)C3O (stereo unspecified),"inconclusive: 0.731 µM [cytotoxic, full curve, poor fit]",–
COCCN(CC(=O)NC1CCCCC1)C(=O)/C=C/C(=O)c1ccc(OC)cc1O,active: 18.4 µM,–
NC(=NCCc1ccc(Cl)cc1)NS(=O)(=O)c1ccc(F)cc1,"inconclusive: 14.6 µM [cytotoxic, single point]",–
Cc1ccc(C)c(Cn2c(=O)n(CC3CCC(C(=O)N4CCOCC4)CC3)c(=O)c3sccc32)c1 (stereo unspecified),"inconclusive: 20.6 µM [cytotoxic, single point]",–
CNc1oc(Cc2ccccc2)nc1S(=O)(=O)c1ccccc1,"inconclusive: 29.1 µM [cytotoxic, single point]",–
Cc1ccc(/C=C/S(=O)(=O)NCCC(=O)NCc2ccc(F)cc2)cc1,–,inactive: -6.53%
COc1cccc(CN(C)C(=O)c2cccc(S(=O)(=O)N3CCN(Cc4ccccc4)CC3)c2)c1OC,"inconclusive: 10.3 µM [cytotoxic, partial curve]",–
CCOC(=O)c1cccc(NC(=O)c2ccc3c(c2)nnn3CC)c1,–,inactive: 9.08%
O=C(N/N=C/c1ccco1)C(O)c1ccccc1 (stereo unspecified),–,inactive: 2.77%
CN(C)c1ccc(NC(=O)CSc2nnc(-c3cccs3)n2Cc2ccco2)cc1,"inconclusive: 29.1 µM [rising, single point]",–
CC(C)CC1NC(=O)N(CC(=O)N2CCN(S(=O)(=O)c3ccc4ccccc4c3)CC2)C1=O (stereo unspecified),–,inactive: -8.09%
O=C(CN1C(=O)/C(=C/c2ccc(C(F)(F)F)cc2)Sc2ccccc21)NCCCN1CCOCC1,–,inactive: 15%

Structure (SMILES),Potency,"activity change, negative = cytotoxic"
O=C(Nc1ccc(-c2nc3ccccc3s2)cc1)c1cc(-n2cnnc2)ccc1Cl,"inconclusive: 18.4 µM [cytotoxic, partial curve]",–
COc1cc(C#Cc2c(-c3cncn3C)n(C)c3ccc(-c4ccc(OC)c(OC)c4)cc23)cc(OC)c1,"inconclusive: 29.1 µM [cytotoxic, single point]",–
COc1ccc(C2=Nc3ccccc3NC(=O)C2N(C(=O)c2ccnc3ccccc23)c2ccccc2)cc1 (stereo unspecified),"inconclusive: 29.1 µM [cytotoxic, single point]",–
c1ccc(-c2cc(-c3nnc4sc(-c5ccccn5)nn34)[nH]n2)cc1,"inconclusive: 0.92 µM [rising, full curve]",–
Cc1ccc(N2CC(C(=O)OCC(=O)Nc3cc(C)on3)CC2=O)c(C)c1 (stereo unspecified),–,inactive: 0.328%
Cc1cccc(C)c1NC(=O)Cn1c(=O)n(Cc2ccc(C(=O)NCc3ccco3)cc2)c(=O)c2sccc21,"inconclusive: 29.1 µM [cytotoxic, single point]",–
CCOC(=O)Cc1cc(C(=O)Nc2ccc(Br)cc2)sc1-c1ccc(C)cc1,–,inactive: -17.2%
Cc1ccc(C(C)(C)C)c(SCC(=O)Nc2nnc(C)s2)c1,–,inactive: -21.7%
CC(C)CC1C(=O)N(Cc2cn(Cc3ccco3)nn2)CCS(=O)(=O)N1Cc1ccc(-c2ccc(Cl)cc2)cc1 (stereo unspecified),"inconclusive: 23.1 µM [cytotoxic, single point]",–
Cc1nc(-c2ccc(Cl)cc2)sc1C1(C)CC(c2ccc(Br)cc2)=NO1 (stereo unspecified),"inconclusive: 0.58 µM [cytotoxic, full curve]",–
O=C(C[C@@H]1C/C=C\C[C@@H](NC(=O)OCC2c3ccccc3-c3ccccc32)C(=O)OC[C@@H](Cc2ccccc2)NC1=O)NCCO,–,inactive: -7.19%
O=C(COc1cc2oc(=O)c3c(c2cc1Cl)CCC3)NCCCN1CCCC1=O,"inconclusive: 29.1 µM [rising, single point]",–
CCCCNC(=O)c1onc(CSc2cc(C)cc(C)c2)c1C(=O)O,"inconclusive: 23.1 µM [cytotoxic, single point]",–
COc1cc(/C=N/N(c2ccccc2)c2ccccc2)ccc1O,"inconclusive: 25.9 µM [cytotoxic, single point]",–
Cc1cccc(N2CCN(C(=O)c3ccc4nc(N5CCC(C)CC5)sc4c3)CC2)c1C,"inconclusive: 14.6 µM [cytotoxic, single point]",–
O=C(CSc1nc(Nc2ccccc2)nc(N2CCOCC2)n1)Nc1ccc([N+](=O)[O-])cc1,"inconclusive: 23.1 µM [cytotoxic, single point]",–
CC(=O)c1cccc(NS(=O)(=O)c2ccc3c(c2)N(C(C)=O)CCO3)c1,–,inconclusive: -21.8%
COc1ccc(Cl)cc1-c1cc(C(=O)NCc2cccc(Cl)c2)[nH]n1,"inconclusive: 29.1 µM [cytotoxic, single point]",–
CC[C@@H]1CC=C[C@H]2[C@H]1C(=O)N(Cc1ccccc1)[C@H]2c1ccc(OC)c(Cl)c1,"inconclusive: 23.1 µM [cytotoxic, partial curve, poor fit]",–
C=Cc1ncc(OC)c2c1[nH]c1ccccc12,active: 5.8 µM,–
CC(C)(C)c1nnc(NC(=O)c2cccnc2)s1,–,inactive: 0%
COc1ccc(C(O)(c2ccccc2OC)C(CN2CCOCC2)c2ccccc2)cc1 (stereo unspecified),"inconclusive: 23.1 µM [cytotoxic, single point]",–

# Single records, from the list above.
# Cc1ccc(N2CC(C(=O)OCC(=O)Nc3cc(C)on3)CC2=O)c(C)c1 (stereo unspecified) in the list: activity change, negative = cytotoxic: inactive: 0.328%
# CC(=O)CSc1cc(-c2ccccc2)nc2ncnn12 in the list: Potency: inconclusive: 2.31 µM [rising, full curve, poor fit]
# O=C(C[C@@H]1C/C=C\C[C@@H](NC(=O)OCC2c3ccccc3-c3ccccc32)C(=O)OC[C@@H](Cc2ccccc2)NC1=O)NCCO in the list: activity change, negative = cytotoxic: inactive: -7.19%
